Taken from: PubChem BioAssay AID504791 (Drosophila RNAi Screening Center, 2011)

- Purpose: 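Genes of the fly required for silencing by miRNA, siRNA or endo-siRNA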 (primary screen)
- Cell system: Drosophila S2-derived reporter cells
- Reagents: long dsRNA against Drosophila genes, about 150-250 ng dsRNA per well (siRNA assay); about 80-120 ng (miRNA assay)
- Time to read-out: about 5 days (siRNA assay); about 4 days (miRNA assay)
- Treatment: copper sulfate induction of reporters: 25 µM (siRNA assay); 200 mM stated (miRNA assay), 1-2 days before reading
- Measured: 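Dual luciferase assay: Renilla to firefly signal ratio in each well, scaled to the mean ratio of its plate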
- Reading the numbers: siRNA reporter hit score: higher = 3 marks a strong hit with raised ratio; -3 a strong hit with lowered ratio
- Rule for the call: 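a well was a first-pass pick when its plate-scaled ratio rose above 1.5 (siRNA assay) or 1.6 (miRNA assay), or dropped below 0.6; a gene counted only if two separate dsRNAs agreed on retest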
The deposit covers about 23,000 reagents; this is a random part of those that have a named target and a result. Of all reagents, 199 (0.86%) are marked active. 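Plate-scaled ratios behind the calls are not deposited; printed light signals are raw; many rows marked increased or decreased are still called inactive.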 Names joined by + are all predicted targets of the reagent. No sequences are given here.

| gene | amplicon | siRNA reporter hit score | stable siRNA reporter change | miRNA reporter change | stable assay Renilla, run 1 (luminescence) | stable assay firefly, run 1 (luminescence) | outcome |
| --- | --- | --- | --- | --- | --- | --- | --- |
| CG13855 | DRSC14705 | – | – | – | 8078 | 3.86e5 | inactive |
| CG13855 | DRSC26677 | – | – | reporter ratio raised past the hit cutoff | – | – | inactive |
| bru2 | DRSC01246 | – | – | – | 4687 | 4.34e5 | inactive |
| bru2 | DRSC01247 | – | – | – | 4340 | 3.85e5 | inactive |
| bru2 | DRSC01249 | – | – | – | 4848 | 3.65e5 | inactive |
| bru2 | DRSC01250 | – | – | – | 4335 | 3.92e5 | inactive |
| bru2 | DRSC02557 | – | – | – | 6406 | 2.89e5 | inactive |
| Obp44a | DRSC06838 | – | – | – | 5888 | 3.87e5 | inactive |
| ACXE | DRSC00847 | – | – | – | 7754 | 3.73e5 | inactive |
| CG7882 | DRSC04899 | – | – | – | 5319 | 2.61e5 | inactive |
| Cyp304a1 | DRSC16623 | – | – | – | 7307 | 4.99e5 | inactive |
| CG31562 (retired record) | DRSC12273 | – | – | – | 6862 | 3.85e5 | inactive |
| CG31562 (retired record) | DRSC12274 | – | – | – | 7043 | 3.91e5 | inactive |
| CG15140 | DRSC02440 | – | – | – | 7282 | 4.43e5 | inactive |
| cGlr2 | DRSC04017 | – | – | – | 4995 | 3.97e5 | inactive |
| Sik3 | DRSC06505 | – | – | – | 6242 | 2.98e5 | inactive |
| Sik3 | DRSC06771 | – | – | – | 9096 | 3.20e5 | inactive |
| CG14687 | DRSC14910 | – | – | – | 4975 | 4.58e5 | inactive |
| CG15423 | DRSC00437 | – | – | – | 6722 | 3.15e5 | inactive |
| phr | DRSC07662 | – | – | – | 11165 | 4.53e5 | inactive |
| CG7564 | DRSC10880 | – | – | – | 11208 | 4.58e5 | inactive |
| DIP-delta | DRSC10214 | – | – | – | 6843 | 2.88e5 | inactive |
| DIP-delta | DRSC10450 | – | – | – | 5638 | 3.24e5 | inactive |
| CG18223 | DRSC10306 | – | – | – | 6803 | 4.23e5 | inactive |
| l(2)gl | DRSC00825 | – | – | – | 3580 | 4.13e5 | inactive |
| Or33c | DRSC03388 | – | – | – | 7215 | 4.47e5 | inactive |
| l(2)37Bb | DRSC02088 | – | – | – | 5219 | 3.94e5 | inactive |
| Or92a | DRSC16771 | – | – | – | 8149 | 4.45e5 | inactive |
| PKD | DRSC16200 | – | – | – | 6758 | 3.53e5 | inactive |
| CG14626 | DRSC18631 | – | – | – | 6407 | 3.74e5 | inactive |
| CG30036 | DRSC21334 | – | – | – | 10461 | 4.62e5 | inactive |
| Dh31-R | DRSC06647 | – | – | – | 5894 | 2.63e5 | inactive |
| Dh31-R | DRSC06669 | – | – | – | 6835 | 4.23e5 | inactive |
| pain | DRSC04273 | – | – | – | 6116 | 3.40e5 | inactive |
| homer | DRSC03547 | – | – | – | 12336 | 7.18e5 | inactive |
| CG32111 (retired record) | DRSC09203 | – | – | – | 5519 | 3.53e5 | inactive |
| His1:CG33816 + His1:CG33828 + His1:CG33819 + 21 more | DRSC21266 | – | – | – | 4267 | 3.88e5 | inactive |
| CG31677 | DRSC22023 | – | – | – | 8714 | 5.43e5 | inactive |
| CG4607 | DRSC18375 | – | – | – | 5227 | 2.59e5 | inactive |
| CG13438 | DRSC06398 | – | – | – | 6270 | 3.73e5 | inactive |
| Atg101 | DRSC20020 | – | – | – | 5784 | 3.99e5 | inactive |
| CG2200 | DRSC19840 | 3 | – | – | 6386 | 5.24e5 | inactive |
| Sara | DRSC04653 | – | – | – | 7026 | 3.53e5 | inactive |
| CG12522 | DRSC09088 | – | – | – | 5279 | 4.29e5 | inactive |
| CG13640 | DRSC14639 | – | – | – | 7322 | 4.44e5 | inactive |
| Ntmt | DRSC06624 | – | – | – | 7218 | 4.41e5 | inactive |
| brv1 | DRSC11076 | – | – | – | 7322 | 3.64e5 | inactive |
| mri | DRSC08259 | – | – | – | 8391 | 2.45e5 | inactive |
| CG14245 | DRSC14740 | – | – | – | 6583 | 6.28e5 | inactive |
| His-Psi:CR31616 + His-Psi:CR31615 | DRSC03760 | – | – | reporter ratio raised past the hit cutoff | 5530 | 4.66e5 | inactive |
| CG33966 | DRSC08256 | – | – | – | 5952 | 3.72e5 | inactive |
| ATP8B | DRSC14961 | – | – | – | 6270 | 4.13e5 | inactive |
| CG9008 | DRSC01889 | – | – | – | 6442 | 1.16e6 | inactive |
| Prosbeta3 | DRSC16801 | – | reporter ratio raised past the hit cutoff | – | 8724 | 2.71e5 | active |
| CG13465 | DRSC10011 | – | – | – | 6347 | 3.32e5 | inactive |
| CG5592 | DRSC10524 | – | – | – | 6702 | 5.34e5 | inactive |
| CysRS | DRSC05948 | – | – | – | 4599 | 4.44e5 | inactive |
| CG42506 (retired record) + CG43759 | DRSC19464 | – | – | – | 8071 | 4.87e5 | inactive |
| CG42506 (retired record) + CG43759 | DRSC19543 | – | – | – | 5987 | 2.82e5 | inactive |
| alien | DRSC03482 | – | – | reporter ratio lowered past the hit cutoff | 4792 | 6.10e5 | inactive |
| Snm1 | DRSC12130 | – | – | – | 8266 | 5.19e5 | inactive |
| CG6700 | DRSC02980 | – | – | – | 5120 | 4.75e5 | inactive |
| CG9815 | DRSC04567 | – | – | – | 5342 | 3.32e5 | inactive |
| CG15200 | DRSC19647 | – | – | – | 4867 | 3.64e5 | inactive |
| CG12239 | DRSC17832 | – | – | – | 8004 | 5.39e5 | inactive |
| mura | DRSC16483 | – | – | – | 5275 | 2.56e5 | inactive |
| mura | DRSC16484 | – | reporter ratio raised past the hit cutoff | reporter ratio raised past the hit cutoff | 6359 | 1.76e5 | inactive |
| mura | DRSC23145 | – | – | – | 4392 | 2.96e5 | inactive |
| Rab7 | DRSC16810 | – | – | – | 7312 | 2.72e5 | inactive |
| CG8841 | DRSC07286 | – | – | – | 10052 | 5.63e5 | inactive |
| GckIII | DRSC15729 | – | – | – | 7323 | 4.38e5 | inactive |
| CG14147 | DRSC10149 | – | – | – | 5795 | 3.54e5 | inactive |
| Efhc1.2 | DRSC06027 | – | – | – | 10669 | 3.92e5 | inactive |
| CG11379 | DRSC18629 | – | – | – | 7023 | 4.22e5 | inactive |
| CG15435 | DRSC00450 | – | – | – | 8871 | 4.66e5 | inactive |
| CG10725 | DRSC09788 | – | – | – | 9888 | 5.63e5 | inactive |
| C3G | DRSC17745 | – | – | – | 5815 | 5.09e5 | inactive |
| C3G | DRSC17929 | – | – | – | 7075 | 3.95e5 | inactive |
| C3G | DRSC22329 | – | – | – | 9158 | 5.72e5 | inactive |
| C3G | DRSC23077 | – | – | – | 5127 | 4.18e5 | inactive |
| CG6724 | DRSC02983 | – | – | – | 6567 | 3.72e5 | inactive |
| Octalpha2R | DRSC13319 | – | – | – | 3496 | 3.86e5 | inactive |
| Octalpha2R | DRSC15314 | – | – | – | 7650 | 5.49e5 | inactive |
| Dlc90F | DRSC16649 | – | – | – | 9578 | 3.45e5 | inactive |
| TotZ | DRSC13450 | – | – | – | 3895 | 3.53e5 | inactive |
| l(3)72Dp | DRSC10477 | – | – | – | 6927 | 3.15e5 | inactive |
| GluClalpha | DRSC16680 | – | – | – | 6647 | 3.69e5 | inactive |
| Fuca | DRSC10591 | – | – | – | 6674 | 3.69e5 | inactive |
| CG9130 + CG9133 | DRSC08624 | – | – | – | 6234 | 4.76e5 | inactive |
| CG9130 + CG9133 | DRSC08625 | – | – | – | 10080 | 4.64e5 | inactive |
| CG9130 + CG9133 | DRSC22010 | – | – | – | 9742 | 6.15e5 | inactive |
| slv | DRSC07685 | – | – | – | 7646 | 4.50e5 | inactive |
| CG31740 | DRSC01619 | – | – | – | 5612 | 3.45e5 | inactive |
| Tg | DRSC03047 | – | – | – | 7810 | 5.53e5 | inactive |
| retn | DRSC04679 | – | – | – | 6295 | 3.38e5 | inactive |
| Hex-t2 | DRSC22517 | – | – | reporter ratio raised past the hit cutoff | 3956 | 2.81e5 | inactive |
| CG34165 | DRSC01970 | – | – | – | 4587 | 3.06e5 | inactive |
| CG10512 | DRSC11615 | – | – | – | 7378 | 3.90e5 | inactive |
| CG8036 | DRSC16366 | – | – | – | 6499 | 3.40e5 | inactive |
| CG11334 | DRSC14066 | – | – | – | 6526 | 3.21e5 | inactive |
| CG11334 | DRSC14302 | – | – | – | 5739 | 4.46e5 | inactive |
| temp | DRSC18271 | – | – | – | 6187 | 2.91e5 | inactive |
| CG12483 | DRSC08278 | – | – | – | 6612 | 5.28e5 | inactive |
| CG32196 | DRSC09548 | – | reporter ratio raised past the hit cutoff | – | 3108 | 79019 | inactive |
| CG8578 | DRSC20114 | – | – | – | 7164 | 4.57e5 | inactive |
| VhaAC39-1 | DRSC18242 | – | – | – | 7431 | 5.44e5 | inactive |

Reagents above called active (1):
| gene | amplicon | siRNA reporter hit score | stable siRNA reporter change | miRNA reporter change | stable assay Renilla, run 1 (luminescence) | stable assay firefly, run 1 (luminescence) | outcome |
| --- | --- | --- | --- | --- | --- | --- | --- |
| Prosbeta3 | DRSC16801 | – | reporter ratio raised past the hit cutoff | – | 8724 | 2.71e5 | active |
